# According to the supplement of paper PMC8616043:
# Where a name gives a salt, the structure may show the parent alone. The list shows a part of the results. Repeats in this data set agree poorly, so a single value says little.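 Human U-2 OS cells stably expressing a GFP sensor with a nuclear import signal and classical export signal were transfected to produce PR50, a 50-repeat proline–arginine dipeptide from ALS/FTD gene C9ORF72. Nuclear-minus-cytoplasm GFP was scaled from DMSO (low) to PR-only (high), scored against plate test wells; strongly negative scores marked PR-reversing hits.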
# Test system: U-2 OS NCT-C biosensor cells expressing PR50
# Assay: Z-score of normalised NCT-C biosensor translocation index in PR50-expressing cells; higher = more nuclear biosensor (more disrupted nuclear export)
# Details: 3 µM; 24 h
row,Compound,Z-score
1,O=c1[nH]c2ccccc2n1C1CCN(CCCC(c2ccc(F)cc2)c2ccc(F)cc2)CC1 [Pimozide],inactive: -0.0224
2,COc1cccc2c1cc([N+](=O)[O-])c1c(C(=O)O)cc3c(c12)OCO3 [Aristolochic acid A],inactive: -0.488
3,CC1=C2C[C@H]3[C@@H](CC=C4C[C@@H](O)CC[C@@]43C)[C@@H]2CC[C@]12O[C@@H]1C[C@H](C)CN[C@H]1[C@H]2C [Cyclopamine],inactive: -0.765
4,c1cc2c(cc1[C@H]1OC[C@H]3[C@@H]1CO[C@H]3c1ccc3c(c1)OCO3)OCO2 [(-)-Asarinin],inactive: 0.075
5,CN(C)C(=O)Oc1ccc[n+](C)c1 [Pyridostigmine Bromide],inactive: -0.25
6,CN(C)C(=O)Oc1ccc[n+](C)c1 [Pyridostigmine bromide],inactive: 0.824
7,C#CCN(C)[C@H](C)Cc1ccccc1 [Selegiline·HCl],inactive: -0.564
8,CN1[C@@H]2C[C@@H](OC(=O)[C@H](CO)c3ccccc3)C[C@H]1[C@H](O)C2 (racemic) [(+/-)-Anisodamine],inactive: -0.551
9,"Clc1ccc(N2CCN(Cc3c[nH]c4ncccc34)CC2)cc1 [L-745,870  hydrochloride]",inactive: -0.126
10,NCCCNCCSP(=O)(O)O [Amifostine],inactive: 0.444
11,c1ccc2c(c1)[nH]c1cnccc12 [Norharmane],inactive: 0.0952
12,CC1(C)[C@@H](O)C[C@H]2[C@](C)(O)[C@@H]3CC[C@@H]4[C@@H](O)[C@@]3(C[C@@H](O)[C@@]21O)C[C@@]4(C)O [Grayanotoxin III],inactive: -0.3
13,CN1[C@@H]2CC[C@H]1C[C@@H](OC(=O)C(CO)c1ccccc1)C2 (stereo partly specified) [Atropine sulfate],inactive: 0.0353
14,CN1[C@@H]2CC[C@H]1C[C@@H](OC(=O)C(CO)c1ccccc1)C2 (stereo partly specified) [Atropine Sulfate Monohydrate],inactive: 2.18
15,CC(C)C[C@H]1C(=O)N2CCC[C@H]2[C@]2(O)O[C@](NC(=O)[C@@H]3C=C4c5cccc6[nH]c(Br)c(c56)C[C@H]4N(C)C3)(C(C)C)C(=O)N12 [Bromocriptine mesylate],inactive: -0.281
16,CC(C)C[C@H]1C(=O)N2CCC[C@H]2[C@]2(O)O[C@](NC(=O)[C@@H]3C=C4c5cccc6[nH]c(Br)c(c56)C[C@H]4N(C)C3)(C(C)C)C(=O)N12 [Bromocriptine Mesylate],inactive: -1.64
17,CC(C)C[C@H]1C(=O)N2CCC[C@H]2[C@]2(O)O[C@](NC(=O)[C@@H]3C=C4c5cccc6[nH]c(Br)c(c56)C[C@H]4N(C)C3)(C(C)C)C(=O)N12 [(+)-Bromocriptine methanesulfonate],inactive: 1.89
18,COc1cc(C(O)CN)ccc1O (racemic) [(±)-Normetanephrine hydrochloride],inactive: -0.611
19,CCC1=C[C@H]2CN3CCc4c([nH]c5ccccc45)[C@](C(=O)OC)(C2)[C@H]13 [Catharanthine],inactive: -0.516
20,C#CCOC(=O)C1=CCCN(C)C1 [Arecaidine propargyl ester hydrobromide],inactive: 0.562
21,C[C@H]1CC[C@@H]2N(C1)C[C@H]1[C@@H]3C[C@H]4[C@@H](CC(=O)[C@H]5C[C@@H](O)CC[C@@]54C)[C@@H]3CC[C@H]1[C@]2(C)O [Imperialine],inactive: -0.0369

row,Compound,Z-score
1,C[C@@H]1CC[C@H]2[C@H](C)[C@H]3CC[C@@]4(O)[C@@H]5CC(=O)[C@H]6CC(=O)CC[C@]6(C)[C@H]5C[C@H]4[C@@H]3CN2C1 [Sevedindione],inactive: -0.276
2,NCC(CP(=O)(O)O)c1ccc(Cl)cc1 (stereo unspecified) [Phaclofen],inactive: -1.09
3,c1ccc(C2CC2)c(OCC2=NCCN2)c1 [Cirazoline hydrochloride],inactive: -0.46
4,CN1[C@@H]2CC[C@H]1C[C@@H](OC(c1ccccc1)c1ccccc1N)C2 (stereo partly specified) [Aminobenztropine],inactive: 0.0799
5,CN1[C@H]2C[C@H](OC(=O)[C@H](CO)c3ccccc3)C[C@@H]1[C@@H](O)C2 [Anisodamine],inactive: -0.382
6,CN(C)C(=O)Oc1cccc([N+](C)(C)C)c1 [Neostigmine bromide],inactive: -1.04
7,CNC(=O)Oc1ccc2c(c1)[C@]1(C)CCN(C)[C@@H]1N2C [(-)-Physostigmine],inactive: 0.273
8,CNC(=O)Oc1ccc2c(c1)[C@]1(C)CCN(C)[C@@H]1N2C [Physostigmine],inactive: 0.151
9,COc1ccc(C(CN(C)C)C2(O)CCCCC2)cc1 (stereo unspecified) [Venlafaxine hydrochloride],inactive: -0.324
10,COc1ccc(C(CN(C)C)C2(O)CCCCC2)cc1 (stereo unspecified) [Venlafaxine·HCl],inactive: 0.167
11,CCc1c(C(=O)C(N)=O)c2c(OCC(=O)O)cccc2n1Cc1ccccc1 [Varespladib],inactive: 0.478
12,"CC(N)c1cccc(Cl)c1Cl (racemic) [(±)-2,3-Dichloro- alpha- methylbenzylamine hydrochloride]",inactive: 0.391
13,COC[C@@H](NC(C)=O)C(=O)NCc1ccccc1 [Lacosamide],inactive: -0.408
14,O=C1C=CC(=O)C=C1 [p-Benzoquinone],inactive: 0.661
15,"COc1ccc2c(c1OC)C(=O)OC2C1c2cc3c(cc2CCN1C)OCO3 (single isomer, unassigned; (+)) [(+)-Hydrastine]",inactive: 0.0287
16,C=C1C[C@@H]2[C@H](CC[C@]3(C)C(=O)CC[C@@H]23)[C@@]2(C)C=CC(=O)C=C12 [Exemestane],inactive: -0.26
17,c1ccc(C[N+]23CN4CN(CN(C4)C2)C3)cc1 [Roslin 2],inactive: -0.0101
18,CC(=O)c1c(O)c(C)c(O)c(Cc2c(O)c3c(c(C(=O)/C=C/c4ccccc4)c2O)OC(C)(C)C=C3)c1O [Rottlerin],inactive: -0.903
19,C=C1[C@@H](C)[C@H]2[C@H](Cc3ccccc3)NC(=O)[C@]23[C@H](OC(C)=O)/C=C/[C@@](C)(O)C(=O)[C@@H](C)C/C=C/[C@H]3[C@@H]1O [Cytochalasin D],inactive: -0.504
20,COc1ccccc1N1CCNCC1 [1-(2-  Methoxyphenyl) piperazine HCl],inactive: 0.404
21,CC1=NN=C(c2ccc(N)cc2)c2cc3c(cc2C1)OCO3,inactive: -0.539

row,Compound,Z-score
1,COc1cc2c(cc1OC)C13CC[N+]4([O-])CC5=CCOC6CC(=O)N2C1C6C5CC34 (stereo unspecified) [Brucine-N-oxide],inactive: 0.103
2,CCCCCCC(=O)CCCCCC/C=C/C[C@@H](O)[C@H](O)[C@@](N)(CO)C(=O)O [Myriocin],inactive: 0.271
3,C[C@@H]1O[C@@H](O[C@H]2C[C@@H](O)[C@]3(CO)[C@H]4[C@H](O)C[C@]5(C)[C@@H]([C@@H]6COC(=O)C6)CC[C@]5(O)[C@@H]4CC[C@]3(O)C2)[C@H](O)[C@H](O)[C@H]1O [Dihydroouabain],inactive: -0.000584
4,c1ccc2c3c([nH]c2c1)CNCC3 [Noreleagnine],inactive: -0.126
5,O=C(O)Cc1cnc[nH]1 [Imidazole-4-acetic acid hydrochloride],inactive: 0.153
6,O=C(O)[C@@H]1CCN1 [L-azetidine-2- carboxylic acid],inactive: 0.458
7,C[C@](N)(CCP(=O)(O)O)C(=O)O,inactive: -0.981
8,CC(=O)OCC1=C(C(=O)[O-])N2C(=O)[C@@H](NC(=O)CCC[C@@H](N)C(=O)[O-])[C@H]2SC1.[Zn+2] [Cephalosporin C zinc salt],inactive: -0.0844
9,CO[C@@H]1C=C2CCN(C)[C@@H]2C2c3cc4c(cc3C(=O)OC21)OCO4 (stereo partly specified) [Ungerine nitrate],inactive: 1.22
10,CN1C(=O)CCS(=O)(=O)C1c1ccc(Cl)cc1 (stereo unspecified) [Chlormezanone],inactive: 0.0754
11,O=P1(N(CCCl)CCCl)NCCCO1 (stereo unspecified) [Cyclo phosphamide monohydrate],inactive: 3.95
12,O=P1(N(CCCl)CCCl)NCCCO1 (stereo unspecified) [Cyclophosphamide monohydrate],inactive: 0.396
13,"CCCC[N+]1(C)[C@@H]2C[C@@H](OC(=O)[C@H](CO)c3ccccc3)C[C@H]1[C@@H]1O[C@@H]12 (single isomer, unassigned; (-)) [(-)-Scopolamine,n-Butyl-, bromide]",inactive: -1.13
14,c1ccc2sc(C3(N4CCCCC4)CCCCC3)cc2c1 [BTCP  hydrochloride],inactive: 4.71
15,C[C@H]1CC[C@@H]2[C@@H](C)[C@H]3[C@H](C[C@H]4[C@@H]5CC=C6C[C@@H](O[C@@H]7O[C@H](CO)[C@H](O)[C@H](O[C@@H]8O[C@H](CO)[C@@H](O)[C@H](O)[C@H]8O)[C@H]7O[C@H]7O[C@@H](C)[C@H](O)[C@@H](O)[C@H]7O)CC[C@]6(C)[C@H]5CC[C@]34C)N2C1 [α-Solanine],inactive: -0.36
16,COc1cc2c(cc1O)C[C@H]1c3c(cc(O)c(OC)c3-2)CCN1C [Boldine],inactive: -0.329
17,Cc1sc2c(c1C)C(c1ccc(Cl)cc1)=N[C@@H](CC(=O)OC(C)(C)C)c1nnc(C)n1-2,inactive: 0.971
18,CN1C2CC(=O)CC1C(O)C2 (stereo unspecified) [6-Hydroxytropinone],inactive: -0.0792
19,C[C@@H]1CC[C@]2(NC1)O[C@H]1C[C@H]3[C@@H]4CC=C5C[C@@H](O)CC[C@]5(C)[C@H]4CC[C@]3(C)[C@H]1[C@@H]2C [Solasodine],inactive: -0.709

# Rewritten with tabs: entries from further up.
row	Compound	Z-score
16	COc1cc2c(cc1O)C[C@H]1c3c(cc(O)c(OC)c3-2)CCN1C [Boldine]	inactive: -0.329
17	Cc1sc2c(c1C)C(c1ccc(Cl)cc1)=N[C@@H](CC(=O)OC(C)(C)C)c1nnc(C)n1-2	inactive: 0.971
18	CN1C2CC(=O)CC1C(O)C2 (stereo unspecified) [6-Hydroxytropinone]	inactive: -0.0792
19	C[C@@H]1CC[C@]2(NC1)O[C@H]1C[C@H]3[C@@H]4CC=C5C[C@@H](O)CC[C@]5(C)[C@H]4CC[C@]3(C)[C@H]1[C@@H]2C [Solasodine]	inactive: -0.709
